The values that follow are results of earlier work, collected in US12590950B2, “Methods for predicting ER-mediated DNA damage” (UNIVERSITY OF MASSACHUSETTS, priority 2019, dated 2026).

Like-named read-outs stand apart in the source and are kept apart here.

The conditions of the series: cited from earlier work; for Median blood concentration: human blood.

As to `C[C@]12CC[C@@H]3c4ccc(O)cc4CC[C@H]3[C@@H]1CC[C@@H]2O` [E2, 17β-estradiol, reference compound], the Median blood concentration runs as follows: (luteal) 0.0002 to 0.0008 µM; (ovulatory) 0.0003 to 0.0018 µM; (pregnancy) 0.074 µM. For the same compound, the “median level in normal cycling women” value (normal cycling women) is below 2 nM. Further, the “median level during pregnancy” value (pregnancy) is 74 nM.
